Measured values from paper PMC7261158.
Substitutions are numbered along the chain they refer to. The exact form of at least one protein or probe is not confirmed. Tags and fusion partners may be left off the protein sequences shown.

What was measured:
[1] = target: T1, DnmA (YeeA, M.BsuPY79I) (Bacillus subtilis PY79) (UniProt O31504); assay: EMSA; settings: ScoC EMSA (1x from 5x): 50 mM Tris-HCl pH 8, 1 mM EDTA, 30 mM KCl, 2 mM MgCl2, 1 mM DTT, 0.2% Tween 20, 25 ug/ml salmon sperm DNA, 37 C 15 min; recombinant protein; label: 5' IRD700 on strand 1
T1 sequence (looked up, limits assumed): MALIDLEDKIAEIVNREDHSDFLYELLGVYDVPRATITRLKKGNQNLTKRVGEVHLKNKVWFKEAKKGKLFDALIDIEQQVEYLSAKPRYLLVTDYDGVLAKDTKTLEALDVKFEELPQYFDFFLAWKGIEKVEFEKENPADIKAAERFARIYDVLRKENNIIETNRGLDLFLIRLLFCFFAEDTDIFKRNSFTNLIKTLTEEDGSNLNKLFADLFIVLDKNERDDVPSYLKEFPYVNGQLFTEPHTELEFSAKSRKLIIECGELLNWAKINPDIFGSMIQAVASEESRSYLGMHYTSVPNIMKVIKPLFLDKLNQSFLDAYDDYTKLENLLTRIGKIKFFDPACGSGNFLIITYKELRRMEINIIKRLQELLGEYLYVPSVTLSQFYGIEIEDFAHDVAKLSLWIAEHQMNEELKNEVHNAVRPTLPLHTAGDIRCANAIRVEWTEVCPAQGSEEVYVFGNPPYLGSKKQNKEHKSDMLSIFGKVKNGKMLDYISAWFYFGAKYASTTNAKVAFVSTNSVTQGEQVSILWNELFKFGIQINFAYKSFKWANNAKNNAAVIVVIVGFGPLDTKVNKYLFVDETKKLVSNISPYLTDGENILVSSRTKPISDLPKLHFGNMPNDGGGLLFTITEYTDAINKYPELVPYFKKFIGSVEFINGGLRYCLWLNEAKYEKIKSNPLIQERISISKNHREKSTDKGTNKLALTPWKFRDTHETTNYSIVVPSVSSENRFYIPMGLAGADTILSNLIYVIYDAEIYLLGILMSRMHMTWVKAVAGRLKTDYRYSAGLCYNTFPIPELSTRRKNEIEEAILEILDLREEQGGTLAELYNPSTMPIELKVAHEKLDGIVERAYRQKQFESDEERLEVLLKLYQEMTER

[2] = target: T2, DnmA Y465A (Bacillus subtilis PY79) (UniProt O31504); assay: EMSA; settings: ScoC EMSA (1x from 5x): 50 mM Tris-HCl pH 8, 1 mM EDTA, 30 mM KCl, 2 mM MgCl2, 1 mM DTT, 0.2% Tween 20, 25 ug/ml salmon sperm DNA, 37 C 15 min; recombinant protein; label: 5' IRD700 on strand 1
T2 sequence (looked up, limits assumed): T1 sequence (looked up, limits assumed) with Y465A

“GTGCAGCGTATCCGGACAATGACGTGACGGAAACAGAGCTGCTGCTGATC (double strand) [DnmA non-target (GACGTG), oAS10]”: binds [1].

“ATATAAACATACATACATACATTATTATATAAACATACATACATACATTA (double strand) [DnmA degenerate sequence (no target), oAS11]”: binds [1].

“GTGCAGCGTATCCGGACAATGACGAGACGGAAACAGAGCTGCTGCTGATC (double strand) [DnmA target (GACGAG), oAS9]”: binds [1]; binds [2].
